This note sets out measurements from article PMC8617289.

Sequences of proteins named here, by UniProt entry; tags and fusion partners are left off.
UniProt A2A935: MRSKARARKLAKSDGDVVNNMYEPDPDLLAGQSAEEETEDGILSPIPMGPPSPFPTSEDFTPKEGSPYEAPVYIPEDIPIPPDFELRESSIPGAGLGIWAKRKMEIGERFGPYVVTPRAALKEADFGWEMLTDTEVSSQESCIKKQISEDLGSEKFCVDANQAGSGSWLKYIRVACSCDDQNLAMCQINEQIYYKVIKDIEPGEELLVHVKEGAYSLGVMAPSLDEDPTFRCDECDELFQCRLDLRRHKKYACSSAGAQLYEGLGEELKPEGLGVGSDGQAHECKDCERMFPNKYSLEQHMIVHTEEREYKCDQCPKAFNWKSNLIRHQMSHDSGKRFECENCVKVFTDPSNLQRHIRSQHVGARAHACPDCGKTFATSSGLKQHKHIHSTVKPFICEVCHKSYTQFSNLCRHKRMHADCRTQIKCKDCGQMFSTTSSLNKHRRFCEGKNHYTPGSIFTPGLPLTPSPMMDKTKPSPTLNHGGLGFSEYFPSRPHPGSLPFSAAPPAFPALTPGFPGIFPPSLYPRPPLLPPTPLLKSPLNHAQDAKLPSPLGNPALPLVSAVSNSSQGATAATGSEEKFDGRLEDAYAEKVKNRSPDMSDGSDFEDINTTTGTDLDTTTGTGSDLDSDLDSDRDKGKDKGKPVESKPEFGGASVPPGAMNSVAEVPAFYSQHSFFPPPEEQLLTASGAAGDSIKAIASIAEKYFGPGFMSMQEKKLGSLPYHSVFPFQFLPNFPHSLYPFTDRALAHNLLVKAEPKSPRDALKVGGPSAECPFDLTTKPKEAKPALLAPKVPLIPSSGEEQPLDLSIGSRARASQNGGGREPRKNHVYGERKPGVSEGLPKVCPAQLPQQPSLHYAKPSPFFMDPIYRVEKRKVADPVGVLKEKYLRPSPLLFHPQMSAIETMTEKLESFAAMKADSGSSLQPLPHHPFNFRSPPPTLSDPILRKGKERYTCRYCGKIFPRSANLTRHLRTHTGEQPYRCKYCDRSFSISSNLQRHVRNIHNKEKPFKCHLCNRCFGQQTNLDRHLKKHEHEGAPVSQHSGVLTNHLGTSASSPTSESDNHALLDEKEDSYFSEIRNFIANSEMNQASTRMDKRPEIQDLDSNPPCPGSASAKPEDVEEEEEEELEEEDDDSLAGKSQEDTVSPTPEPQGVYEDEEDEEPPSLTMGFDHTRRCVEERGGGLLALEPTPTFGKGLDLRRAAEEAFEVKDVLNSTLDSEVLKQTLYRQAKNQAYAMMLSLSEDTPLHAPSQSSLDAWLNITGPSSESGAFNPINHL

No constants are given. Whether binding was seen depends on the method and setting. Binding seen in cells or lysates may run through a third protein. Some entries that bind do so weakly or less than the wild type.

Assay [1] addresses PRDM16 (mouse (endogenous in MEFs and BAT cells)) (UniProt A2A935). Put plainly: co-IP; endogenous PRDM16 immunoprecipitated (anti-PRDM16, protein A magnetic beads) from lysate (0.75% NP-40, 1 mM DTT) of MEFs after 2 days of brown adipogenic commitment; scramble, Dio3os-cas9 knockdown, Dio3os-cas9 + 50 nM T3; immunoblot for PGC-1a and CtBP1; IgG as negative control. In general terms: In western blotting, separated proteins are transferred to a membrane and probed.

Assay [2] has the same target. Put plainly: co-IP; endogenous PRDM16 immunoprecipitated from brown progenitors/preadipocytes or SVFs isolated from mouse BAT (fetal E18.5 and adult, control or maternal obesity; AAV-scramble or AAV-Dio3os injected mice); immunoblot for PGC-1a and CtBP1; IgG as negative control.
Assay [3] has the same target. The experiment in a line: co-IP; PGC-1a/PRDM16 complex in spheroids formed from fetal BAT stromal vascular cells; Dio3os knockdown with or without T3 supplementation.

CtBP1 (from UniProt O88712 1-441): the binding entry in assay [1] and in assay [2] was “binds” each time.

B1: PGC-1a (protein, UniProt O70343 1-797)
chain: MAWDMCSQDSVWSDIECAALVGEDQPLCPDLPELDLSELDVNDLDTDSFLGGLKWCSDQSEIISNQYNNEPANIFEKIDEENEANLLAVLTETLDSLPVDEDGLPSFDALTDGAVTTDNEASPSSMPDGTPPPQEAEEPSLLKKLLLAPANTQLSYNECSGLSTQNHAANHTHRIRTNPAIVKTENSWSNKAKSICQQQKPQRRPCSELLKYLTTNDDPPHTKPTENRNSSRDKCASKKKSHTQPQSQHAQAKPTTLSLPLTPESPNDPKGSPFENKTIERTLSVELSGTAGLTPPTTPPHKANQDNPFKASPKLKPSCKTVVPPPTKRARYSECSGTQGSHSTKKGPEQSELYAQLSKSSGLSRGHEERKTKRPSLRLFGDHDYCQSLNSKTDILINISQELQDSRQLDFKDASCDWQGHICSSTDSGQCYLRETLEASKQVSPCSTRKQLQDQEIRAELNKHFGHPCQAVFDDKSDKTSELRDGDFSNEQFSKLPVFINSGLAMDGLFDDSEDESDKLSYPWDGTQPYSLFDVSPSCSSFNSPCRDSVSPPKSLFSQRPQRMRSRSRSFSRHRSCSRSPYSRSRSRSPGSRSSSRSCYYYESSHYRHRTHRNSPLYVRSRSRSPYSRRPRYDSYEAYEHERLKRDEYRKEHEKRESERAKQRERQKQKAIEERRVIYVGKIRPDTTRTELRDRFEVFGEIEECTVNLRDDGDSYGFITYRYTCDAFAALENGYTLRRSNETDFELYFCGRKQFFKSNYADLDTNSDDFDPASTKSKYDSLDFDSLLKEAQRSLRR
On to B1, for which the binding result in assay [1], in assay [3] and in assay [2] was “binds” in each case.
